The text below walks through data of the supplement of paper PMC10849652.

By UniProt entry, the sequences of proteins in these tests, tags left out. Where a name states a change or a piece, a line headed by the entry shows the natural chain unless it says otherwise.
UniProt Q8TBN0: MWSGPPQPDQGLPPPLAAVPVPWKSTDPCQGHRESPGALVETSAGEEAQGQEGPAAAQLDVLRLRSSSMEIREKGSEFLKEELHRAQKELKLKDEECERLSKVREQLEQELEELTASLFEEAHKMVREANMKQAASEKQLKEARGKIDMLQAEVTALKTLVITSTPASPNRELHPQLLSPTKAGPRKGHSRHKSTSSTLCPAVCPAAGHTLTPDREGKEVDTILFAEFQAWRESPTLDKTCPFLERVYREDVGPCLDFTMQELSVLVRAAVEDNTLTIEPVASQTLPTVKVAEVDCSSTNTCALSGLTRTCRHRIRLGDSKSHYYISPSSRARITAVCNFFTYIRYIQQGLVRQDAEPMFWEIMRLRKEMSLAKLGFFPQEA
UniProt Q92696: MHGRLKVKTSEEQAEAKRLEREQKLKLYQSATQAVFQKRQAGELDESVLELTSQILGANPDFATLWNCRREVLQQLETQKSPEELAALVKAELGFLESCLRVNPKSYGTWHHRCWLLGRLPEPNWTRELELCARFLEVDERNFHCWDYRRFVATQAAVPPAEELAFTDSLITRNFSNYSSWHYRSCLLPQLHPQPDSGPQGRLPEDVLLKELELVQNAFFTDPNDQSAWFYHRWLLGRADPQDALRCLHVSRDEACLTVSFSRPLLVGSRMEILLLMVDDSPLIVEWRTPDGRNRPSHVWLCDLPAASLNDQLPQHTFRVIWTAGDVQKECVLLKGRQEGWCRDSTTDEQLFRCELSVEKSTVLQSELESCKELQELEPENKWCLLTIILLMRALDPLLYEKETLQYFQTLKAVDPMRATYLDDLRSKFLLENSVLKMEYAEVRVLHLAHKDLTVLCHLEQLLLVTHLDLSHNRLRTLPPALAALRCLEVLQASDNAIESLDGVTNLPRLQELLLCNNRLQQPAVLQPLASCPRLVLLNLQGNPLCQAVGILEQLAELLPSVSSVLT
UniProt P49756, whole entry, looked up: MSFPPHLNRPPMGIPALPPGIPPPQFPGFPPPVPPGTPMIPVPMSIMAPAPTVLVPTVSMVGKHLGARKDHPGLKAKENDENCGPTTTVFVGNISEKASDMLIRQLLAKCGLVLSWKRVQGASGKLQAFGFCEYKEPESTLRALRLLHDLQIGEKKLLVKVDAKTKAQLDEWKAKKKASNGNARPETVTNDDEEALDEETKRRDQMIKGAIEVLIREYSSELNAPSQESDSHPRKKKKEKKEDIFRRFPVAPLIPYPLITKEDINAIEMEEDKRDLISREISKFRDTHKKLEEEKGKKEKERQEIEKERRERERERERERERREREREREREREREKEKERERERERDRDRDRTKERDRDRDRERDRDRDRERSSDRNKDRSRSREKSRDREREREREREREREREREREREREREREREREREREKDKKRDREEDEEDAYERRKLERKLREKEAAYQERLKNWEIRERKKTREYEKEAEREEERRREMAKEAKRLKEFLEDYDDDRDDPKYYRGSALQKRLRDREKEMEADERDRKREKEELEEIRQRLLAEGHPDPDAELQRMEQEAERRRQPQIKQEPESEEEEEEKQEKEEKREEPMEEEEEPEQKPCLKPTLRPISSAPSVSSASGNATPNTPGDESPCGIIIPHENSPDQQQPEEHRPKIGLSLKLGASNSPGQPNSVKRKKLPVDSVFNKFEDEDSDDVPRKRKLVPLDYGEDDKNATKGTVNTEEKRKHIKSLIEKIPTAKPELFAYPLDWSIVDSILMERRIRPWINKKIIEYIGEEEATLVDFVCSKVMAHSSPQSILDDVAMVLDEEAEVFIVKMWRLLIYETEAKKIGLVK
UniProt Q9H082: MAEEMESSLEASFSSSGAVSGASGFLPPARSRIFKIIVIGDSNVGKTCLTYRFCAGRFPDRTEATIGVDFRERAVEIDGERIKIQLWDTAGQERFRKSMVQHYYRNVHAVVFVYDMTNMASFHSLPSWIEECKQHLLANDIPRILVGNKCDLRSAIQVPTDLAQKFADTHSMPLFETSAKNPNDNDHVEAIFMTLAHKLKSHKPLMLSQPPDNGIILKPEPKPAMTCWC
UniProt P54136: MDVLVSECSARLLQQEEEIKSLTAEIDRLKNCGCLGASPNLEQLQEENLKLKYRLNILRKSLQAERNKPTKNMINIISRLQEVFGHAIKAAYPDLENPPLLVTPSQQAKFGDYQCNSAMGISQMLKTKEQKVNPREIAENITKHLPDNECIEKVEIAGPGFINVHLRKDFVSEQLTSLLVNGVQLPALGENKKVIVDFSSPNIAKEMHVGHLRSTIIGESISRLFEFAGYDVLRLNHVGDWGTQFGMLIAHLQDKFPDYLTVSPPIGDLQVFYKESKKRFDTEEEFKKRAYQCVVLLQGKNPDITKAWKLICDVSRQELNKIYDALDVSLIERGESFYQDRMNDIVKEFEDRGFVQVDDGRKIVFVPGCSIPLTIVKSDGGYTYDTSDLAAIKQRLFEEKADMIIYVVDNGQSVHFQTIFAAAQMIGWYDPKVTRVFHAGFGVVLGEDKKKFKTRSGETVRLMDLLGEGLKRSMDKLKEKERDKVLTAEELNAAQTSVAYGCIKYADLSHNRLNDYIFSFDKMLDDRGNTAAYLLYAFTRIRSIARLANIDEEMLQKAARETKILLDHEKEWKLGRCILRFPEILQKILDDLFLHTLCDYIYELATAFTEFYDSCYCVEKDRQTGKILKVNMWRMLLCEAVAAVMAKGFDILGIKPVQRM
UniProt Q5T8P6: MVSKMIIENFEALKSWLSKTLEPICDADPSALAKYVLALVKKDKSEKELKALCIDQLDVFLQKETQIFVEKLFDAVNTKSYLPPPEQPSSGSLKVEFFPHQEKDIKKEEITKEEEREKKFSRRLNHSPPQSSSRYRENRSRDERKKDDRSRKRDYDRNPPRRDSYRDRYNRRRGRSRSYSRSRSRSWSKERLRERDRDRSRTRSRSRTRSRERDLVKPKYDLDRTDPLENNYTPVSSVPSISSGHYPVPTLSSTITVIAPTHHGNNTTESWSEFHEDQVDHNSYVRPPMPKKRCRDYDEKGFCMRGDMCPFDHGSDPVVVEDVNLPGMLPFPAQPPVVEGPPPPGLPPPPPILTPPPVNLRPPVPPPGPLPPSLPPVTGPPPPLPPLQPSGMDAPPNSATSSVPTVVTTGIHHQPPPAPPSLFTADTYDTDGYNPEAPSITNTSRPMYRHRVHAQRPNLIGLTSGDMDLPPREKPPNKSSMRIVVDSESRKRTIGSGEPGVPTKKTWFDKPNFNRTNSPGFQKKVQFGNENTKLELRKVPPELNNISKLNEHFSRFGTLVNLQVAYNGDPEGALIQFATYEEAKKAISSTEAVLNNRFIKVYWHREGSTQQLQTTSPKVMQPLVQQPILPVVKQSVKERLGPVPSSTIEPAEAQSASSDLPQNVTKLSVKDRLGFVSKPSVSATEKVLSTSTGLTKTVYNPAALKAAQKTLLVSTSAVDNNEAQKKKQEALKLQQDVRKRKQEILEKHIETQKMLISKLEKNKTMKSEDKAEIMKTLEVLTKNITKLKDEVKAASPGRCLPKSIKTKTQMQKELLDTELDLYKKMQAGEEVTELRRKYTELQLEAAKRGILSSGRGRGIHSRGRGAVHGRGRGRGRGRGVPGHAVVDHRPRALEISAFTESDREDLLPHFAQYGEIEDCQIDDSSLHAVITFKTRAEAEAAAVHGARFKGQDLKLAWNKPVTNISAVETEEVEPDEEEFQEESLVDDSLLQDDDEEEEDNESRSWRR
UniProt O15315: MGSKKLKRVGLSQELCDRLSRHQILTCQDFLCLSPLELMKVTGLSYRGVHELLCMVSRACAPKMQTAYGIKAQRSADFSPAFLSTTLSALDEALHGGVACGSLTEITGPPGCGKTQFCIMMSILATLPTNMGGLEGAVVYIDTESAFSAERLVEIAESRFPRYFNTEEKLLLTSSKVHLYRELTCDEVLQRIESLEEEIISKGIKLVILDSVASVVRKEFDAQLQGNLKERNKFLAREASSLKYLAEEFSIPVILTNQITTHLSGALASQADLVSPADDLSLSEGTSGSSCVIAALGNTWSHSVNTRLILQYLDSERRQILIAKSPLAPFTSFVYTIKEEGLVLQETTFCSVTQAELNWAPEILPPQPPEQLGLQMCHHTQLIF
UniProt Q92930: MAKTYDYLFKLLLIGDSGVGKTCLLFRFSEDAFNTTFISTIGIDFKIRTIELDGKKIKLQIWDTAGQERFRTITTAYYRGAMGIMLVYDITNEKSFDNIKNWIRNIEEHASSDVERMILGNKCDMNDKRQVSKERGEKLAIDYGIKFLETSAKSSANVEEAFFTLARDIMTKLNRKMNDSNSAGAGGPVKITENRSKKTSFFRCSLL
UniProt Q9P0K7: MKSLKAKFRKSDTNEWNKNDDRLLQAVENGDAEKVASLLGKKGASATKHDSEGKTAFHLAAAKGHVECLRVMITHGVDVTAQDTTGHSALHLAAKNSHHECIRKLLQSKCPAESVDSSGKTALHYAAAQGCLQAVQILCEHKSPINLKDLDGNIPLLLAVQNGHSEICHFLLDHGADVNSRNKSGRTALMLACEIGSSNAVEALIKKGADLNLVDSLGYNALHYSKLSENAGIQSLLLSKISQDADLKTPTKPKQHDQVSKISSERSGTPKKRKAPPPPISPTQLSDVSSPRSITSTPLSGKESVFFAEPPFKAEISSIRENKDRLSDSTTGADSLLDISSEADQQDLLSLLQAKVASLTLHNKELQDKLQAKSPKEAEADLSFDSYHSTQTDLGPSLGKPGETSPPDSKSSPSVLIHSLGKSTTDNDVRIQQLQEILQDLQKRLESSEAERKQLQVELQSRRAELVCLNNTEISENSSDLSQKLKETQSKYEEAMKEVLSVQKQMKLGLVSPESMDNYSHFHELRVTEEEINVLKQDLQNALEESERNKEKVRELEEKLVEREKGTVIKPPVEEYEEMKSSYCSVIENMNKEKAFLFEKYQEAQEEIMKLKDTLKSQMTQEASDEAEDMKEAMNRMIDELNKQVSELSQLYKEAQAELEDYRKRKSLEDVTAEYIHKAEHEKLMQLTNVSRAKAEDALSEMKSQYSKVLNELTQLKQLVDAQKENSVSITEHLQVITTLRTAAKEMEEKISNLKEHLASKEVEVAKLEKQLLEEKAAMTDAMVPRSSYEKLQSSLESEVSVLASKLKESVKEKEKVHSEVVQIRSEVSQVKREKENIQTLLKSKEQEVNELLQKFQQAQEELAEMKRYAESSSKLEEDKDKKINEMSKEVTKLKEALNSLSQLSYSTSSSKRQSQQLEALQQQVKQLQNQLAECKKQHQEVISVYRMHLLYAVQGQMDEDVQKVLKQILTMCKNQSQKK
UniProt Q9UKM9: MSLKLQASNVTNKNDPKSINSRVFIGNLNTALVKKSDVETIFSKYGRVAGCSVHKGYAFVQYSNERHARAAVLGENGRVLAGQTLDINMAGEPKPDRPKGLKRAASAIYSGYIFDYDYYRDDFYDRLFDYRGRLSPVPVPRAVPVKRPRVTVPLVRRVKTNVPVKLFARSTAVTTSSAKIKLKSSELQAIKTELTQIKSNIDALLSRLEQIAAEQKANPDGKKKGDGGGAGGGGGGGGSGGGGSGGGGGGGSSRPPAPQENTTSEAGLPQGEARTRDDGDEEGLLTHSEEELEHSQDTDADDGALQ
UniProt P06400: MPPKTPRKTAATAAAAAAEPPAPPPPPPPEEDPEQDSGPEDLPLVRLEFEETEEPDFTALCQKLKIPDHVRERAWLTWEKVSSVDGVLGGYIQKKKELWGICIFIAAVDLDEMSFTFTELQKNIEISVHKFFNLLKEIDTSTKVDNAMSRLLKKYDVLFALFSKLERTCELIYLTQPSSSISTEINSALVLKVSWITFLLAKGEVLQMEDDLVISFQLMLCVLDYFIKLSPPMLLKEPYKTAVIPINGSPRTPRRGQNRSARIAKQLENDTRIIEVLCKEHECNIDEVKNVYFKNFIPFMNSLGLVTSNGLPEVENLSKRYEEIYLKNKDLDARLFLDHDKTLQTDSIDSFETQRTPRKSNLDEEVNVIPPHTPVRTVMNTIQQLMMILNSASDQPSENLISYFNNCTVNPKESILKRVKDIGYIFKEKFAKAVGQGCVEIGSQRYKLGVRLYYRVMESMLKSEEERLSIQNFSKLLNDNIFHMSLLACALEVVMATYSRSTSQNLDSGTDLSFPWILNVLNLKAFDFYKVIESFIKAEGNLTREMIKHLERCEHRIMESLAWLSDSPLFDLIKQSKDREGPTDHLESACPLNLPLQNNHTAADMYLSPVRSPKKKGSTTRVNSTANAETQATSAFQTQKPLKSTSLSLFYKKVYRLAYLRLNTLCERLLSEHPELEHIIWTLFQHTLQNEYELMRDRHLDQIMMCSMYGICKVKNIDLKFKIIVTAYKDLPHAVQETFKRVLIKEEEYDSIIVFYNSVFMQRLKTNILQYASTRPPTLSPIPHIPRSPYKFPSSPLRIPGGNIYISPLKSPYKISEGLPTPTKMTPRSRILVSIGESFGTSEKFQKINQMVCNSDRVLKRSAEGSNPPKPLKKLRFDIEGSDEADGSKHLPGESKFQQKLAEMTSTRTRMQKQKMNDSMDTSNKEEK

The list shows a part of the results.

Compound in one assay: C#Cc1cccc(Nc2ncnc3cc(OCCOC)c(OCCOC)cc23)c1 [erlotinib]
Description: log2 fold change, soluble protein after heating vs DMSO (PISA); higher = thermal stabilisation; K562 cells, 10 uM, 30 min; active = over 0.2 and 3.5 SD of the protein, either way, in both replicates (recomputed). The procedure, abridged:
(§1)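 Soluble protein was defined as the supernatant after 21,000xg for 90 min. It came from K562 cells at 2×10^6 cells/mL given 10 μM compound for 30 min, heated in aliquots for 3 min across 48°C-58°C, pooled, and extracted in PBS with 0.5% NP-40 at 4°C, and was quantified by TMTpro 16plex LC-MS/MS with equalised channel sums. Thermal stability against control samples, from duplicates, is reported as log2 fold change.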
In the case of RAB3IL1 (UniProt Q8TBN0), the log2 fold change is inactive: -0.007.

For RAP2C (UniProt Q9Y3L5), the log2 fold change was inactive: 0.021.

As for RABGAP1L isoform 3 (UniProt Q5R372), the log2 fold change is inactive: 0.087.

As for RABGGTA (UniProt Q92696), the log2 fold change is inactive: 0.068.

Turning to RAD50 isoform 2 (UniProt Q92878), the log2 fold change is inactive: 0.02.

RAP1B (UniProt F5GZG1): the log2 fold change was inactive: 0.156.

RBM25 (UniProt P49756): the log2 fold change is inactive: 0.142.

As for RBBP7 (UniProt Q16576), the log2 fold change was inactive: 0.026.

For R3HDM4 (UniProt Q96D70), the log2 fold change was inactive: 0.02.

Turning to RBM33 (UniProt Q96EV2), the log2 fold change is inactive: 0.017.

As for RBM28 (UniProt Q9NW13), the log2 fold change is inactive: 0.073.

As to RBBP5 isoform 2 (UniProt Q15291), the log2 fold change is inactive: -0.354.

RAB33B (UniProt Q9H082): the log2 fold change was inactive: 0.059.

Take RARS (UniProt P54136): the log2 fold change is inactive: 0.023.

As to RBM26 isoform 2 (UniProt Q5T8P6), the log2 fold change was inactive: 0.174.

As for RAD51B (UniProt O15315), the log2 fold change is inactive: 0.11.

With RAB5IF isoform 5 (UniProt Q9BUV8), the log2 fold change was inactive: 0.071.

For the target RAB8B (UniProt Q92930), the log2 fold change is inactive: 0.258.

Turning to RACK1 (UniProt D6RHH4), the log2 fold change was inactive: 0.021.

As to RALA (UniProt P11233), the log2 fold change was inactive: 0.087.

In the case of RAB3IL1 (UniProt E9PK89), the log2 fold change was inactive: -0.238.

On to RABGAP1L isoform 5 (UniProt Q5R372), for which the log2 fold change is inactive: 0.114.

Take RAVER1 (UniProt E9PAU2): the log2 fold change was inactive: 0.218.

With RAI14 isoform 2 (UniProt Q9P0K7), the log2 fold change is inactive: 0.076.

As for RALY (UniProt Q9UKM9), the log2 fold change was inactive: 0.018.

Consider RAPGEF4 (UniProt Q8WZA2), for which the log2 fold change was inactive: 0.271.

On to RB1CC1 (UniProt Q8TDY2), for which the log2 fold change was inactive: 0.119.

As to RAB30 (UniProt Q15771), the log2 fold change is inactive: 0.057.

Regarding RAB11FIP1 (UniProt Q6WKZ4), the log2 fold change was inactive: 0.004.

For RB1 (UniProt P06400), the log2 fold change was inactive: -0.007.

Take RAB3GAP2 (UniProt Q9H2M9): the log2 fold change is inactive: 0.068.

Turning to RAF1 isoform 2 (UniProt P04049), the log2 fold change was inactive: -0.048.

As for RALGPS2 (UniProt Q86X27), the log2 fold change is inactive: -0.43.

Compound in another assay: C/C(=N\NC(=O)C1=CC(=CC=C1)S(=O)(=O)N2CCOCC2)/C3=C(C=CC(=C3)Cl)O
Described as above. A digest of the protocol: as §1
Turning to RAB3IL1 (UniProt Q8TBN0), the log2 fold change is inactive: -0.007.

For RAP2C (UniProt Q9Y3L5), the log2 fold change was inactive: 0.119.

For the target RABGAP1L isoform 3 (UniProt Q5R372), the log2 fold change was inactive: 0.052.

In the case of RABGGTA (UniProt Q92696), the log2 fold change is inactive: 0.018.

Consider RAD50 isoform 2 (UniProt Q92878), for which the log2 fold change was inactive: 0.034.

For the target RAP1B (UniProt F5GZG1), the log2 fold change is inactive: -0.007.

Take RBM25 (UniProt P49756): the log2 fold change is inactive: -0.037.

RBBP7 (UniProt Q16576): the log2 fold change was inactive: -0.037.

On to R3HDM4 (UniProt Q96D70), for which the log2 fold change is inactive: -0.04.

With RBM33 (UniProt Q96EV2), the log2 fold change is inactive: 0.04.

On to RBM28 (UniProt Q9NW13), for which the log2 fold change is inactive: -0.052.

As for RBBP5 isoform 2 (UniProt Q15291), the log2 fold change is inactive: 0.

For RAB33B (UniProt Q9H082), the log2 fold change is inactive: 0.031.

For RARS (UniProt P54136), the log2 fold change was inactive: 0.011.

RBM26 isoform 2 (UniProt Q5T8P6): the log2 fold change is inactive: 0.216.

In the case of RAD51B (UniProt O15315), the log2 fold change was inactive: -0.223.

RAB5IF isoform 5 (UniProt Q9BUV8): the log2 fold change is inactive: 0.093.

Turning to RAB8B (UniProt Q92930), the log2 fold change was inactive: 0.085.

Consider RACK1 (UniProt D6RHH4), for which the log2 fold change is inactive: -0.206.

As for RALA (UniProt P11233), the log2 fold change is inactive: -0.005.

For RAB3IL1 (UniProt E9PK89), the log2 fold change was inactive: -0.055.

As to RABGAP1L isoform 5 (UniProt Q5R372), the log2 fold change was inactive: 0.043.

As for RAVER1 (UniProt E9PAU2), the log2 fold change was inactive: 0.403.

On to RAI14 isoform 2 (UniProt Q9P0K7), for which the log2 fold change was inactive: -0.068.

Take RALY (UniProt Q9UKM9): the log2 fold change is inactive: -0.072.

For RAPGEF4 (UniProt Q8WZA2), the log2 fold change was active: -0.636.

With RB1CC1 (UniProt Q8TDY2), the log2 fold change was inactive: -0.066.

Regarding RAB30 (UniProt Q15771), the log2 fold change was inactive: 0.165.

Turning to RAB11FIP1 (UniProt Q6WKZ4), the log2 fold change was inactive: 0.074.

As to RB1 (UniProt P06400), the log2 fold change is inactive: 0.041.

As for RAB3GAP2 (UniProt Q9H2M9), the log2 fold change was inactive: 0.083.

Consider RAF1 isoform 2 (UniProt P04049), for which the log2 fold change was inactive: 0.08.

RALGPS2 (UniProt Q86X27): the log2 fold change was inactive: -0.07.

Compound in a further assay: C1=CC(=C(C=C1Cl)C2=NC3=NC=CN=C3C(=N2)NC4=CC=NC=C4)F
The assay is described as above. A digest of the protocol: as §1
Regarding RAB3IL1 (UniProt Q8TBN0), the log2 fold change is inactive: 0.057.

On to RAP2C (UniProt Q9Y3L5), for which the log2 fold change was inactive: 0.205.

With RABGAP1L isoform 3 (UniProt Q5R372), the log2 fold change was inactive: 0.161.

Turning to RABGGTA (UniProt Q92696), the log2 fold change was inactive: 0.065.

For RAD50 isoform 2 (UniProt Q92878), the log2 fold change was inactive: 0.076.

As for RAP1B (UniProt F5GZG1), the log2 fold change is inactive: 0.055.

Take RBM25 (UniProt P49756): the log2 fold change is inactive: -0.039.

Take RBBP7 (UniProt Q16576): the log2 fold change is inactive: -0.027.

Regarding R3HDM4 (UniProt Q96D70), the log2 fold change is inactive: -0.124.

Consider RBM33 (UniProt Q96EV2), for which the log2 fold change is inactive: -0.022.

In the case of RBM28 (UniProt Q9NW13), the log2 fold change is inactive: -0.185.

In the case of RBBP5 isoform 2 (UniProt Q15291), the log2 fold change is inactive: -0.063.

In the case of RAB33B (UniProt Q9H082), the log2 fold change was inactive: 0.028.

Regarding RARS (UniProt P54136), the log2 fold change was inactive: -0.169.

Consider RBM26 isoform 2 (UniProt Q5T8P6), for which the log2 fold change was inactive: 0.25.

Consider RAD51B (UniProt O15315), for which the log2 fold change is inactive: 0.136.

For RAB5IF isoform 5 (UniProt Q9BUV8), the log2 fold change is inactive: 0.098.

RAB8B (UniProt Q92930): the log2 fold change is active: 0.332.

Consider RACK1 (UniProt D6RHH4), for which the log2 fold change was inactive: -0.265.

For the target RALA (UniProt P11233), the log2 fold change was inactive: 0.033.

Regarding RAB3IL1 (UniProt E9PK89), the log2 fold change was inactive: 0.116.

As for RABGAP1L isoform 5 (UniProt Q5R372), the log2 fold change is inactive: -0.076.

Turning to RAVER1 (UniProt E9PAU2), the log2 fold change was inactive: 0.042.

Regarding RAI14 isoform 2 (UniProt Q9P0K7), the log2 fold change is inactive: -0.029.

Take RALY (UniProt Q9UKM9): the log2 fold change is inactive: -0.541.

Turning to RAPGEF4 (UniProt Q8WZA2), the log2 fold change was inactive: 0.057.

With RB1CC1 (UniProt Q8TDY2), the log2 fold change was inactive: 0.102.

Consider RAB30 (UniProt Q15771), for which the log2 fold change was inactive: -0.029.

In the case of RAB11FIP1 (UniProt Q6WKZ4), the log2 fold change is inactive: 0.078.

RB1 (UniProt P06400): the log2 fold change was inactive: 0.012.

With RAB3GAP2 (UniProt Q9H2M9), the log2 fold change was inactive: -0.043.

In the case of RAF1 isoform 2 (UniProt P04049), the log2 fold change was inactive: -0.129.

Take RALGPS2 (UniProt Q86X27): the log2 fold change was inactive: -0.321.
